PubChem BioAssay AID1259261 | Sanger Institute, 2017

- Assay: 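siRNA screen across the kinome for kinases that are essential and partners synergising with drugs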 (primary screen)
- Cells: HCC2998 human colorectal cancer cells
- Reagents: siRNA pool against human genes
- Challenge: anchor drugs BYL719 1 µM, cetuximab 5 µg/ml or trametinib 10 nM, each compared with DMSO vehicle
- Read-out: 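Viability as fraction of non-targeting control plus robust z-score without drug; synergy scores compare knock-down plus drug against each alone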
- Direction: viability z-score, knock-down alone: higher = more viable cells than controls
- Active means: 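Essential when the siRNA-alone viability robust z-score is below -3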
- Calls: active = essential; inactive = no change
The whole screen tested 794 reagents; this is a random part of them. In the full data, 10 (1.3%) were called active. 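Calls reflect knock-down alone without drug; synergy scores with BYL719, cetuximab or trametinib do not affect calls.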 Not all columns of the deposit are shown. The record does not give: the amount of reagent, the time to read-out.

| gene | viability z-score, knock-down alone | Call |
| --- | --- | --- |
| IP6K1 (GeneID 9807) | 1.21 | inactive |
| MPP3 (GeneID 4356) | -0.0251 | inactive |
| CRIM1 (GeneID 51232) | -1.36 | inactive |
| MAP2K3 (GeneID 5606) | -0.692 | inactive |
| SYNCRIP (GeneID 10492) | -1.11 | inactive |
| MAP4K5 (GeneID 11183) | 0.113 | inactive |
| ACVR1C (GeneID 130399) | -0.597 | inactive |
| AKT2 (GeneID 208) | 0.859 | inactive |
| CDK10 (GeneID 8558) | -0.526 | inactive |
| CHKA (GeneID 1119) | -0.581 | inactive |
| STAG2 (GeneID 10735) | 1.13 | inactive |
| NME3 (GeneID 4832) | -1.35 | inactive |
| STK38 (GeneID 11329) | -0.657 | inactive |
| TP53RK (GeneID 112858) | 1.13 | inactive |
| ACVRL1 (GeneID 94) | 1.03 | inactive |
| PAPSS1 (GeneID 9061) | 1.21 | inactive |
| CDKN2B (GeneID 1030) | 0.5 | inactive |
| PANK3 (GeneID 79646) | 0.138 | inactive |
| CHKB (GeneID 1120) | 0.773 | inactive |
| MAP3K1 (GeneID 4214) | 1.21 | inactive |
| PRKACG (GeneID 5568) | -0.734 | inactive |
| DGKG (GeneID 1608) | -0.0636 | inactive |
| KCNH8 (GeneID 131096) | 0.0732 | inactive |
| DAPK1 (GeneID 1612) | -0.866 | inactive |
| RFK (GeneID 55312) | -1.2 | inactive |
| RIPK1 (GeneID 8737) | 1.15 | inactive |
| FGFR4 (GeneID 2264) | 0.434 | inactive |
| PI4K2B (GeneID 55300) | 0.481 | inactive |
| NRK (GeneID 203447) | 0.295 | inactive |
| BRD2 (GeneID 6046) | -0.552 | inactive |
| STK4 (GeneID 6789) | 1.07 | inactive |
| COASY (GeneID 80347) | -3.07 | active |
| PKN1 (GeneID 5585) | 0.0517 | inactive |
| PRPS1L1 (GeneID 221823) | 1.13 | inactive |
| NME7 (GeneID 29922) | 1.21 | inactive |
| ELP1 (GeneID 8518) | 1.12 | inactive |
| MAPK11 (GeneID 5600) | -0.125 | inactive |
| PRKAR2A (GeneID 5576) | -0.201 | inactive |
| CDC7 (GeneID 8317) | -0.0189 | inactive |
| PIM2 (GeneID 11040) | 0.471 | inactive |
| MAST3 (GeneID 23031) | -0.672 | inactive |
| PRKACA (GeneID 5566) | 0.321 | inactive |
| PIK3C2A (GeneID 5286) | -1.57 | inactive |
| RPS6KA5 (GeneID 9252) | -0.824 | inactive |
| BMP2K (GeneID 55589) | -0.377 | inactive |
| IP6K2 (GeneID 51447) | -0.502 | inactive |
| ALPK1 (GeneID 80216) | 0.159 | inactive |
| CDKN1B (GeneID 1027) | 1.15 | inactive |
| AGK (GeneID 55750) | 1.16 | inactive |
| ARAF (GeneID 369) | 1.21 | inactive |
| PRKACB (GeneID 5567) | 0.217 | inactive |
| MYH10 (GeneID 4628) | 0.362 | inactive |
| MAP3K13 (GeneID 9175) | -0.0993 | inactive |
| FGFR2 (GeneID 2263) | -0.914 | inactive |
| GK2 (GeneID 2712) | 0.891 | inactive |
| TRIM27 (GeneID 5987) | 0.536 | inactive |
| STK40 (GeneID 83931) | 0.588 | inactive |
| NAGK (GeneID 55577) | -1.56 | inactive |
| RAD21 (GeneID 5885) | -1.48 | inactive |
| SRPK1 (GeneID 6732) | 0.214 | inactive |
| PRKX (GeneID 5613) | 1.21 | inactive |
| CHEK2 (GeneID 11200) | 0.806 | inactive |
| CDC42BPB (GeneID 9578) | 1.21 | inactive |

Quoted from the entries so far for reference:
| gene | viability z-score, knock-down alone | Call |
| --- | --- | --- |
| MPP3 (GeneID 4356) | -0.0251 | inactive |
| CRIM1 (GeneID 51232) | -1.36 | inactive |
| MAP2K3 (GeneID 5606) | -0.692 | inactive |
| SYNCRIP (GeneID 10492) | -1.11 | inactive |
| MAP4K5 (GeneID 11183) | 0.113 | inactive |
| ACVR1C (GeneID 130399) | -0.597 | inactive |
| AKT2 (GeneID 208) | 0.859 | inactive |
| CDK10 (GeneID 8558) | -0.526 | inactive |
| CHKA (GeneID 1119) | -0.581 | inactive |
